# Data as given in PubChem BioAssay AID504784 (Drosophila RNAi Screening Center, 2011)
# Screen: 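Genome-wide knock-down for genes giving too much or too little stored lipid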 (primary screen)
# Cells: Drosophila Kc167 embryonic cells
# Knock-down reagent: long dsRNA against Drosophila genes, about 250 ng dsRNA per well
# Timing: 4 days
# Conditions: cells fed 400 µM oleic acid bound to BSA
# Measured: 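Cells imaged and segmented; ratio of lipid droplet area to nuclear area, log-transformed, then normalised as a B-score over the screen; higher means more stored lipid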
# Direction: droplet/nuclear area B-score: higher = more stored lipid (overstorage)
# In all, the deposit lists about 17,000 reagents; this is an unselected part of those with a known target gene and a result. 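Each column is one replicate's B-score; the combined score over replicates was not deposited, so single values may mislead.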 Names joined by + are all predicted targets of the reagent.
gene,dsRNA,"droplet/nuclear area B-score, replicate 1","droplet/nuclear area B-score, replicate 2","droplet/nuclear area B-score, replicate 3"
CG4691,DRSC01950,0.393,0.679,
CG7506,DRSC10860,-0.11,-1.63,
CG17261,DRSC00498,-0.0473,0.133,
danr,DRSC14651,1.65,-0.26,
CG14545,DRSC14889,-0.138,0.0149,
CG14627,DRSC18630,0.459,0.275,
lncRNA:CR32657,DRSC19403,-0.922,-2.62,-1.09
brk,DRSC18745,2.53,1.36,
brk,DRSC23036,0.119,1.51,
fd96Cb,DRSC16947,0.202,0.899,
CG17271,DRSC15210,0.137,-1.66,
CG17271,DRSC22629,2.24,0.484,
CG17271,DRSC22982,-2.16,0.836,
Ass + CG31286,DRSC12493,-0.251,-0.281,
CG5070,DRSC19932,0.0614,1.58,
CG30222,DRSC04125,,1,
CG30222,DRSC04262,-0.35,0.543,
CG14803,DRSC18556,0.509,-0.777,
ben,DRSC20310,-0.598,-0.276,1.21
ben,DRSC21261,0.0127,0.0208,
CG10513,DRSC14248,0.0213,0.681,
fest,DRSC07349,-0.131,0.12,
CG12991,DRSC19511,-0.482,-1.07,
alien,DRSC03482,-2.6,-2.9,
MED18,DRSC18549,-0.00833,0.485,
eEF1alpha2,DRSC14079,-0.736,-0.0658,
eEF1alpha2,DRSC16658,-2.23,0.0829,
bves,DRSC20520,-1.16,0.19,
bves,DRSC20555,-0.0827,0.446,
Taf13,DRSC02106,1.19,-0.0339,
Vha55,DRSC16896,0.959,0.958,
CG11384,DRSC18628,0.282,2.23,
CG15450,DRSC20522,-0.416,1.51,
ssp6,DRSC08791,-0.0726,-0.303,
ssp6,DRSC10677,0.621,0.674,
CG9451,DRSC11074,-0.0309,-0.00137,
CG8187,DRSC07099,0.192,,
CG9316,DRSC03195,-0.0131,2.08,
Ir92a,DRSC15111,-0.0223,-1.64,
CG3502,DRSC04381,1.63,-0.401,
Dysb,DRSC10730,0.789,0.844,
CG18766,DRSC15936,0.0662,0.688,
CG9737,DRSC16550,-0.24,0.862,
Npc2b,DRSC15464,0.0212,-0.11,
fat-spondin,DRSC07617,0.365,-0.943,
CG13858 (retired record),DRSC14708,-2.01,0.267,
CG13858 (retired record),DRSC14709,-0.498,0.757,
CG13858 (retired record),DRSC14710,-1.89,-0.313,
CG13858 (retired record),DRSC14711,-0.893,-0.442,
CG12607,DRSC08287,-2.32,-0.318,
CG1532,DRSC20516,-1.02,1.07,
Uhg3,DRSC22963,0.401,0.677,
syd,DRSC10963,-1.58,0.0401,
CG8010,DRSC20072,-3.17,-2.84,
CG4080,DRSC10398,-0.24,-1.6,
Obp99c,DRSC16262,-0.11,0.824,
Ror,DRSC03414,1.49,0.13,
CG4896,DRSC00671,-1.98,0.847,
mRpS11,DRSC15732,1.46,0.978,
fwe,DRSC10594,1.48,0.8,-0.775
fwe,DRSC21400,0.595,-0.373,
Sox21a,DRSC10819,0.0509,-0.00327,
PGAP1,DRSC18286,-2.06,0.83,0.134
Or59c,DRSC04633,0.464,0.895,
mtTFB2,DRSC15519,1.5,-0.253,
CG6142,DRSC15976,-0.853,0.645,
wcd,DRSC07051,-0.889,-0.0565,
CG34276,DRSC15811,-0.334,-1.09,
firl,DRSC02428,-0.563,-1.54,
CG11598,DRSC14331,-1.13,0.513,
CG7406,DRSC20042,-1.25,0.293,
BNIP3,DRSC11761,0.393,0.911,
CG7675,DRSC16280,-1.66,-0.815,
CG14331,DRSC14810,-0.396,-0.0944,
CG10866,DRSC08171,-0.707,-0.0653,
CG3907,DRSC04432,0.19,0.354,
CG42382,DRSC07671,-0.566,-0.268,
CG10126,DRSC14191,-0.00547,6.04,
CG34133,DRSC16319,-0.0605,2.04,
CG34133,DRSC22239,-1.1,-1.36,
Lcp65Ac,DRSC11210,-0.845,0.034,
CG15347,DRSC18031,0.034,1.37,
Cdc7,DRSC18428,-4.04,-3.1,0.907
Cdc7,DRSC18429,-1.63,-0.466,
Cdc7,DRSC22133,2.78,-1.49,

10 successive entries from above:
gene,dsRNA,"droplet/nuclear area B-score, replicate 1","droplet/nuclear area B-score, replicate 2","droplet/nuclear area B-score, replicate 3"
CG15450,DRSC20522,-0.416,1.51,
ssp6,DRSC08791,-0.0726,-0.303,
ssp6,DRSC10677,0.621,0.674,
CG9451,DRSC11074,-0.0309,-0.00137,
CG8187,DRSC07099,0.192,,
CG9316,DRSC03195,-0.0131,2.08,
Ir92a,DRSC15111,-0.0223,-1.64,
CG3502,DRSC04381,1.63,-0.401,
Dysb,DRSC10730,0.789,0.844,
CG18766,DRSC15936,0.0662,0.688,
